Test results published in PMC7948500, “Comparative interactomes of HSF1 in stress and disease reveal a role for CTCF in HSF1-mediated gene regulation” (The Journal of Biological Chemistry, 2020).
Results are given in words; binding and its absence hold for the method and conditions named. Binding seen in cells or lysates may run through a third protein. Some binding calls cover weakened binding; strength is not graded here. Tags and fused reporters may be left off the sequences shown.

Amino acid sequences for entries named in this document (tags omitted). A change or cut given only in a name is not applied to a line headed by its entry.
UniProt Q00613: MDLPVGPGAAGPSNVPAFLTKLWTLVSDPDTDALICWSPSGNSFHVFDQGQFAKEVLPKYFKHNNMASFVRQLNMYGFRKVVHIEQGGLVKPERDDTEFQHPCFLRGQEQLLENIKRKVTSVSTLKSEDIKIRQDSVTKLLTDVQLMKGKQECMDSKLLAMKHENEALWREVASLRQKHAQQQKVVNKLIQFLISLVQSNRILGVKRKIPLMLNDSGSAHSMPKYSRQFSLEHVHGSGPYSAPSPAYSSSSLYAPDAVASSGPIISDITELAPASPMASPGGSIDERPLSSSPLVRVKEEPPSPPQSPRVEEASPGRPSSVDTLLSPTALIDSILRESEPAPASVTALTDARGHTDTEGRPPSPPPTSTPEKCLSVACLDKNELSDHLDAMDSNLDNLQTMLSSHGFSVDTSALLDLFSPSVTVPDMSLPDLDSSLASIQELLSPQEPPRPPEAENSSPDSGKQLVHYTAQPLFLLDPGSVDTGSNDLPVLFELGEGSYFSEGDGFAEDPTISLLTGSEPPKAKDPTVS

T1: hemagglutinin-tagged CTCF (UniProt P49711)
T1 sequence: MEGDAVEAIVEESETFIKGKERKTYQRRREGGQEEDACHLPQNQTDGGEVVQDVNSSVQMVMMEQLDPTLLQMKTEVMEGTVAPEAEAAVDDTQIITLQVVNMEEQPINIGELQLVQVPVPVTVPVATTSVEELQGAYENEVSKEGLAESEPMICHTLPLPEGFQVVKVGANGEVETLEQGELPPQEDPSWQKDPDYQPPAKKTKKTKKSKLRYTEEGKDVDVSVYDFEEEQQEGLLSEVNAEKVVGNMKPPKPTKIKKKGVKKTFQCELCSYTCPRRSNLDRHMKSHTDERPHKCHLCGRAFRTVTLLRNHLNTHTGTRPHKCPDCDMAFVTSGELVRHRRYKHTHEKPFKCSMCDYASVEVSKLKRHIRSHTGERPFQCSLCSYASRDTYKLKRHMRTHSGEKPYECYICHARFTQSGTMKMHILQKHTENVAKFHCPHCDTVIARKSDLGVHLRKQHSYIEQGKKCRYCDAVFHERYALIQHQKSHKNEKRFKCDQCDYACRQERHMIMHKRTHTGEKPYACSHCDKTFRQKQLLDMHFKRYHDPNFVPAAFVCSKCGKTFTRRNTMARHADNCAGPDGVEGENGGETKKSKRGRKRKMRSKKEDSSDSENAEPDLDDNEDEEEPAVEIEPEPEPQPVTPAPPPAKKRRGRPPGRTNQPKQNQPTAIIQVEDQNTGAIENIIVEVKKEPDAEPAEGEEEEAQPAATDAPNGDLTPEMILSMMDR


Key:
[1] = target: T1, hemagglutinin-tagged CTCF; assay: co-IP; HA pull-down on anti-HA magnetic beads from stable HSF1-knockdown HEK 293T cells transfected with HA-CTCF and WT or R71A HSF1, control and heat shock; immunoblot with anti-HSF1
[2] = target: T1, hemagglutinin-tagged CTCF; assay: co-IP; HA-CTCF co-purification with WT and R71A HSF1 in transfected HSF1-/- mouse embryonic fibroblasts (Fig. S3B)
[3] = target: T1, hemagglutinin-tagged CTCF; assay: co-IP; HA pull-down on anti-HA magnetic beads from HEK 293T cells transfected with HA-CTCF, control or heat shock (30 min, 42 °C); immunoblot for HSF1
[4] = target: heat shock transcription factor 1 (endogenous, HEK 293T) (human (endogenous in HEK 293T)) (UniProt Q00613); assay: co-IP; endogenous HSF1 immunoprecipitated (anti-HSF1, DynaG beads) from unstressed HEK 293T cells transfected with HA-CTCF; immunoblot for HA-CTCF; IgG control

| Molecule | binding [1] | binding [2] | binding [3] | binding [4] |
| --- | --- | --- | --- | --- |
| HSF1 R71A (from UniProt Q00613 1-529) | binds | binds | – | – |
| heat shock transcription factor 1 (endogenous, HEK 293T) (from UniProt Q00613 1-529) | – | – | binds | – |
| WT HSF1 (transfected) (from UniProt Q00613 1-529) | binds | binds | – | – |
| hemagglutinin-tagged CTCF (protein, UniProt P49711 1-727) MEGDAVEAIVEESETFIKGKERKTYQRRREGGQEEDACHLPQNQTDGGEVVQDVNSSVQMVMMEQLDPTLLQMKTEVMEGTVAPEAEAAVDDTQIITLQVVNMEEQPINIGELQLVQVPVPVTVPVATTSVEELQGAYENEVSKEGLAESEPMICHTLPLPEGFQVVKVGANGEVETLEQGELPPQEDPSWQKDPDYQPPAKKTKKTKKSKLRYTEEGKDVDVSVYDFEEEQQEGLLSEVNAEKVVGNMKPPKPTKIKKKGVKKTFQCELCSYTCPRRSNLDRHMKSHTDERPHKCHLCGRAFRTVTLLRNHLNTHTGTRPHKCPDCDMAFVTSGELVRHRRYKHTHEKPFKCSMCDYASVEVSKLKRHIRSHTGERPFQCSLCSYASRDTYKLKRHMRTHSGEKPYECYICHARFTQSGTMKMHILQKHTENVAKFHCPHCDTVIARKSDLGVHLRKQHSYIEQGKKCRYCDAVFHERYALIQHQKSHKNEKRFKCDQCDYACRQERHMIMHKRTHTGEKPYACSHCDKTFRQKQLLDMHFKRYHDPNFVPAAFVCSKCGKTFTRRNTMARHADNCAGPDGVEGENGGETKKSKRGRKRKMRSKKEDSSDSENAEPDLDDNEDEEEPAVEIEPEPEPQPVTPAPPPAKKRRGRPPGRTNQPKQNQPTAIIQVEDQNTGAIENIIVEVKKEPDAEPAEGEEEEAQPAATDAPNGDLTPEMILSMMDR | – | – | – | binds |
